Paper PMC8657813
Results are given in words; binding and its absence hold for the method and conditions named. For some assays here: In cells and extracts the contact can be indirect. Some entries that bind do so weakly or less than the wild type. Tags and fused reporters may be left off the sequences shown.

Chains of the proteins cited; added tags and fusions are not shown. Residues count along the entry.
UniProt Q9NZZ3, residues 149-219: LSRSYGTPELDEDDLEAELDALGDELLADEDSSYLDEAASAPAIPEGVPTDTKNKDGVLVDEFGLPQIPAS

T1: GAL4-BROX I354A (pGBKT7) (human (from the GenBank entry NM_144695.3)) (UniProt Q5VW32)
T1 sequence: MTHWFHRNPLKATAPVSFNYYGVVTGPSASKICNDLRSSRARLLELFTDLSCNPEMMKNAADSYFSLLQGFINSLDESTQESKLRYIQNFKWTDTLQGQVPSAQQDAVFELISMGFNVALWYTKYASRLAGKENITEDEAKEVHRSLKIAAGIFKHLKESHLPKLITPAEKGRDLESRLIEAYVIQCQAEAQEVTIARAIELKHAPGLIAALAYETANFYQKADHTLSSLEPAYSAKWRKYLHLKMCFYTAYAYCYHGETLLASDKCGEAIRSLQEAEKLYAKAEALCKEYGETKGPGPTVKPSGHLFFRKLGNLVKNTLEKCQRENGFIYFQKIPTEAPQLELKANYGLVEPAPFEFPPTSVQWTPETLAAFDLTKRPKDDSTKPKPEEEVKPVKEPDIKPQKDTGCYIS

T2: GAL4-BROX L350A (pGBKT7) (human (from the GenBank entry NM_144695.3)) (UniProt Q5VW32)
T2 sequence: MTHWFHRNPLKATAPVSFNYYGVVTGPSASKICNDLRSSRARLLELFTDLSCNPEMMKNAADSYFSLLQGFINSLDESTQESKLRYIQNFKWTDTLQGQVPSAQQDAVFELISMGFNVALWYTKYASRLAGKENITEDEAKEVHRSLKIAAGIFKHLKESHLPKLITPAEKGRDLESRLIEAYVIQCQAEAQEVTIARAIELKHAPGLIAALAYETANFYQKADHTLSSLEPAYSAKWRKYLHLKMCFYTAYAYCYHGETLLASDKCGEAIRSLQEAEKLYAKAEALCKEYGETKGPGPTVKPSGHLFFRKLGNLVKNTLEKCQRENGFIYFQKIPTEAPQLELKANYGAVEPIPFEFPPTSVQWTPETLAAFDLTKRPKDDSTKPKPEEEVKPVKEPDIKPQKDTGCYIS

T3: GAL4-BROX fusion protein, wild type (pGBKT7) (human (from the GenBank entry NM_144695.3)) (UniProt Q5VW32)
T3 sequence: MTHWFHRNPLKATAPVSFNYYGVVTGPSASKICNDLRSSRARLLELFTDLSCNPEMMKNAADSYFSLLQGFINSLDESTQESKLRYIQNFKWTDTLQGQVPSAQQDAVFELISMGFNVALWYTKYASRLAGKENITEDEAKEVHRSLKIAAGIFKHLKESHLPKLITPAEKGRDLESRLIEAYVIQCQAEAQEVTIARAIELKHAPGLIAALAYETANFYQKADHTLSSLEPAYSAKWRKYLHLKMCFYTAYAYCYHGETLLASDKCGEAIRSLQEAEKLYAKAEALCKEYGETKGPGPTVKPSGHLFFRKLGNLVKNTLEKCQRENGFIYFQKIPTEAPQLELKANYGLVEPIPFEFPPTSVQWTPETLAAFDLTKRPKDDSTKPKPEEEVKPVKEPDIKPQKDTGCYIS

T4: Recombinant GST-tagged BROX L350A (human (from the GenBank entry NM_144695.3)) (UniProt Q5VW32)
T4 sequence: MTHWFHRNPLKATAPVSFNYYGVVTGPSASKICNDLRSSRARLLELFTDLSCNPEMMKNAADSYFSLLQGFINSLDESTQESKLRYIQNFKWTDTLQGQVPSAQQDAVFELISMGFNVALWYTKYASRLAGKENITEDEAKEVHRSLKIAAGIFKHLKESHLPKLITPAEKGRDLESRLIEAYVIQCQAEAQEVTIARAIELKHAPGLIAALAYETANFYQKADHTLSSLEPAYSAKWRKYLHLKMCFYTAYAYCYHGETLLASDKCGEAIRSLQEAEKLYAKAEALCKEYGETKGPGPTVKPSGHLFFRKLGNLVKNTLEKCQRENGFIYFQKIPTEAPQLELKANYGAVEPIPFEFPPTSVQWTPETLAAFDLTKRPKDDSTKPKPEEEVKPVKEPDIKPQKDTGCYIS

T5: Recombinant GST-tagged wild-type BROX (human (from the GenBank entry NM_144695.3)) (UniProt Q5VW32)
T5 sequence: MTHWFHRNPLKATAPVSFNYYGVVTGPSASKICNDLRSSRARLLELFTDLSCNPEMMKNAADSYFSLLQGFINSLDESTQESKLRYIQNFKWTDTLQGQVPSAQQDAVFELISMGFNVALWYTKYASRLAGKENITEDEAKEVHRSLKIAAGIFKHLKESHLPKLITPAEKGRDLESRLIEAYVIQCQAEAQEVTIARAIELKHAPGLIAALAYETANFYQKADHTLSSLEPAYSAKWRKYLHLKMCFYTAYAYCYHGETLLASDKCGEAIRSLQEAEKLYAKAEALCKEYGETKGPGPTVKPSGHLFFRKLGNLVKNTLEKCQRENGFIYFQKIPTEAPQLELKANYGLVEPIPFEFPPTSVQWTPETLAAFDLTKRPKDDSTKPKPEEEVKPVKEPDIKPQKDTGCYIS


What was measured:
[1] = biological target: T1, GAL4-BROX I354A (pGBKT7) (human (from the GenBank entry NM_144695.3)); assay: two-hybrid; yeast Y190 co-transformed with pGBKT7 (GAL4-BROX) and pVP16/HA plasmids, 3 days at 30C; β-galactosidase activity with CPRG, A540 nm
[2] = biological target: T2, GAL4-BROX L350A (pGBKT7) (human (from the GenBank entry NM_144695.3)); assay: as above
[3] = biological target: T3, GAL4-BROX fusion protein, wild type (pGBKT7) (human (from the GenBank entry NM_144695.3)); assay: as above
[4] = biological target: T4, Recombinant GST-tagged BROX L350A (human (from the GenBank entry NM_144695.3)); assay: pull-down; recombinant GST-BROX proteins on glutathione sepharose 4B beads as bait; clarified lysates of 293T cells transfected with GFP constructs as preys (50 mM Tris pH 7.4, 150 mM NaCl, 5 mM EDTA, 5% glycerol, 1% Triton X-100), 3h at 4°C; eluates blotted with α-GFP; only the target purified
[5] = biological target: T5, Recombinant GST-tagged wild-type BROX (human (from the GenBank entry NM_144695.3)); assay: as above

Row | binding [1] | binding [2] | binding [3] | binding [4] | binding [5] | Molecule
1 | binds | binds | binds |  |  | C-terminal fragment of human CHMP5 (residues 149–219) fused to a VP16 activation domain and an HA tag (pVP16/HA) (from UniProt Q9NZZ3 149-219) (domain or fragment)
2 |  |  |  | binds | binds | GFP-CHMP4B (protein, UniProt Q9H444 1-224) MSVFGKLFGAGGGKAGKGGPTPQEAIQRLRDTEEMLSKKQEFLEKKIEQELTAAKKHGTKNKRAALQALKRKKRYEKQLAQIDGTLSTIEFQREALENANTNTEVLKNMGYAAKAMKAAHDNMDIDKVDELMQDIADQQELAEEISTAISKPVGFGEEFDEDELMAELEELEQEELDKNLLEISGPETVPLPNVPSIALPSKPAKKKEEEDDDMKELENWAGSM
3 | binds | binds | binds |  |  | CHMP4B fused to a VP16 activation domain and an HA tag (pVP16/HA) (protein, UniProt Q9H444 1-224) MSVFGKLFGAGGGKAGKGGPTPQEAIQRLRDTEEMLSKKQEFLEKKIEQELTAAKKHGTKNKRAALQALKRKKRYEKQLAQIDGTLSTIEFQREALENANTNTEVLKNMGYAAKAMKAAHDNMDIDKVDELMQDIADQQELAEEISTAISKPVGFGEEFDEDELMAELEELEQEELDKNLLEISGPETVPLPNVPSIALPSKPAKKKEEEDDDMKELENWAGSM
